The values that follow come from paper doi:10.1101/2020.05.20.107144.

Protein sequences, listed by entry. Tags and fused reporters are not part of them.
UniProt Q15477, whole entry: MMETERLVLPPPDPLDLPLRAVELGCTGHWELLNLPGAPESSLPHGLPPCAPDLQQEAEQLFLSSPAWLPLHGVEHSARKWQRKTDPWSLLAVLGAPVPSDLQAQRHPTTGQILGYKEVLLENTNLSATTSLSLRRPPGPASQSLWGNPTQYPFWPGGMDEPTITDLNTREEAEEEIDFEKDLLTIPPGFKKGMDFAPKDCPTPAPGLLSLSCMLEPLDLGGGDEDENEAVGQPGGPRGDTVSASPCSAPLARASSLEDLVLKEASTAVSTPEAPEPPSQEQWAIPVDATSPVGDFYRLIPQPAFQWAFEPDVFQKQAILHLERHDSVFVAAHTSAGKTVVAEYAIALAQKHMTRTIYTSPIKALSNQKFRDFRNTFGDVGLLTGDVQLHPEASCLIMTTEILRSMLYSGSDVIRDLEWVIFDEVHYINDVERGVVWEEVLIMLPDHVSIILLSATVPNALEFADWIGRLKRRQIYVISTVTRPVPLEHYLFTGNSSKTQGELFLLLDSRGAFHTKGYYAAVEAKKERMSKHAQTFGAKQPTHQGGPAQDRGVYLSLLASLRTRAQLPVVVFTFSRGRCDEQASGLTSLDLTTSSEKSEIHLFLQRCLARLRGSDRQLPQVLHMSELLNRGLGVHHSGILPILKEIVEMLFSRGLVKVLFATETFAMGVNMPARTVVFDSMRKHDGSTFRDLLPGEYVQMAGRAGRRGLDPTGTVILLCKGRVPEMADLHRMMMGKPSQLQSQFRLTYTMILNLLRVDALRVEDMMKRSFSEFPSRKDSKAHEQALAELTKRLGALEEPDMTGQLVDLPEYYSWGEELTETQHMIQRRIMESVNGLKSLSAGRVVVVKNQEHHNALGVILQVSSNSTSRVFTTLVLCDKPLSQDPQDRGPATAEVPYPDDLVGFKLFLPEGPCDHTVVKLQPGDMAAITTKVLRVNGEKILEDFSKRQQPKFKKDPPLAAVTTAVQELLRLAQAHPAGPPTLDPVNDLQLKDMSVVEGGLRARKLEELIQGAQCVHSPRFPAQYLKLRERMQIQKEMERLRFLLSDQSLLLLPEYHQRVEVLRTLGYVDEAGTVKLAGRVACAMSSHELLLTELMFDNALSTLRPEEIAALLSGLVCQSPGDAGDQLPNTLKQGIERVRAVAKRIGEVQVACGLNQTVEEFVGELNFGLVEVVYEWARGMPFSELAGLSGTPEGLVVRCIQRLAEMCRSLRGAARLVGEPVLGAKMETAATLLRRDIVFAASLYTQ
UniProt Q6PGP7, whole entry: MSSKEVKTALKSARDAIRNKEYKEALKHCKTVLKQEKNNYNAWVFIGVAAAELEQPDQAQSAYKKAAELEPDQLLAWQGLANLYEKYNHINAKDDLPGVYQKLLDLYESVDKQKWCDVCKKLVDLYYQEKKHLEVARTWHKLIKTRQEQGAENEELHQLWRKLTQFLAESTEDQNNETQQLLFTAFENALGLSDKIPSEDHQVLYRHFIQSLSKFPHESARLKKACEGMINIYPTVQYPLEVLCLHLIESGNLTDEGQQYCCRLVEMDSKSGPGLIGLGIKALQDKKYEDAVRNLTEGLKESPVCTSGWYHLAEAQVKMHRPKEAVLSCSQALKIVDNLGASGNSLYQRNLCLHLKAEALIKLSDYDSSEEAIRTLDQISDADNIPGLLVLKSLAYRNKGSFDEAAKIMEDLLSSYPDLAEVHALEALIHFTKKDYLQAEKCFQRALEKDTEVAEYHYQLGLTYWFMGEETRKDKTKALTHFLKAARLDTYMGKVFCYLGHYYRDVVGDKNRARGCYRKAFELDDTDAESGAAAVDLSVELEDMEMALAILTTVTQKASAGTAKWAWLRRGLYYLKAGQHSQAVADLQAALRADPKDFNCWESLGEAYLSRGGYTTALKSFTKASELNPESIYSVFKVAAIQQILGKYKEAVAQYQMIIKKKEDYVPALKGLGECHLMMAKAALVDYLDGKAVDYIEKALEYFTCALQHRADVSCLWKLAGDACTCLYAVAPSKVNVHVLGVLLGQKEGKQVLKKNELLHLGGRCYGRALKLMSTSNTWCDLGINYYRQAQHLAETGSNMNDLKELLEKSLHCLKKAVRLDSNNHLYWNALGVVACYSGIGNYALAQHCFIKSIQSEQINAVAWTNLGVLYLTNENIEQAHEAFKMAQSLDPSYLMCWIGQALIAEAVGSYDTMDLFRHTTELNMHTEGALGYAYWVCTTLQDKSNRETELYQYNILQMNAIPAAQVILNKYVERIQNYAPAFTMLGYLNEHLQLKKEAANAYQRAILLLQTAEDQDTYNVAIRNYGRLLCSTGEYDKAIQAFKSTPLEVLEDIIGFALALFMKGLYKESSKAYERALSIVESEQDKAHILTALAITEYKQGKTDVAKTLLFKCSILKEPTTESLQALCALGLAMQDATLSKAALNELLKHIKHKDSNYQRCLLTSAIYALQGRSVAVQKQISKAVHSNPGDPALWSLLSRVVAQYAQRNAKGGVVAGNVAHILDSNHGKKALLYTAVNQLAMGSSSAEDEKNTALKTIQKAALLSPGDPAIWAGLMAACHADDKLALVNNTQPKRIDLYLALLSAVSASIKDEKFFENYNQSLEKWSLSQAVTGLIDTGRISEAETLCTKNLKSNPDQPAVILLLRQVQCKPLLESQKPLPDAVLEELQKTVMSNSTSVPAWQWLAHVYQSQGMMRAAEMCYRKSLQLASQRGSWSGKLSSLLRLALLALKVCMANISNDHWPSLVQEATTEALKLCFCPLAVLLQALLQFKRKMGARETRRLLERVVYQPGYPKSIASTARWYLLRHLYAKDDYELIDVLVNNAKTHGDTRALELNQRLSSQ

The target in the assay is SKIV2L, N-terminus MBP-tagged (subunit of the human SKI complex, hSKI) (human) (UniProt Q15477). In words: co-purification.

These are yes or no findings as the source states them, for the method shown. Some results given as binding are weak or reduced against the parent protein; the word gives no strength.

Turning to “TTC37, N-terminus His-Flag tagged (subunit of the human SKI complex, hSKI) (from UniProt Q6PGP7 1-1564)”, the binding entry is “binds”.
